Results published in publication PMC11791078, “RECQ4-MUS81 interaction contributes to telomere maintenance with implications to Rothmund-Thomson syndrome” (Nature Communications, 2025).
Results are given in words; binding and its absence hold for the method and conditions named. For part of these data: In cells and extracts the contact can be indirect. Some entries that bind do so weakly or less than the wild type. Sequences can lack the tags named with a protein.

What was measured:
GST-MUS81 (1-278) = target: T1, GST-MUS81 (1-278) (UniProt Q96NY9); experiment: pull-down; purified GST-MUS81-EME1, GST-MUS81 or GST-MUS81 fragments (5 µg) incubated with MBP-tagged RECQ4 fragments (5 µg) and Glutathione Sepharose 4 Fast Flow beads in 1X K buffer with 150 mM KCl, 0.01% NP40, 1 mM DTT, 30 min, 4 °C; flow-through and bound fractions on SDS-PAGE, Coomassie blue; both purified
T1 sequence: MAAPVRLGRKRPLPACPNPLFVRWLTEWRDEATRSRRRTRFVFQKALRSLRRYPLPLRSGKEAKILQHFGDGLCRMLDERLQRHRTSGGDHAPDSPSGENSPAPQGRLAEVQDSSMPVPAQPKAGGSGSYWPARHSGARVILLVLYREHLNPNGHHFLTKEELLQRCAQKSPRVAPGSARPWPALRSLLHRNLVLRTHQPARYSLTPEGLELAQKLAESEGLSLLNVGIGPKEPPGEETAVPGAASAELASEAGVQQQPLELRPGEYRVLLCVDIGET

GST-MUS81 = target: T2, GST-MUS81 (UniProt Q96NY9); experiment: as above
T2 sequence: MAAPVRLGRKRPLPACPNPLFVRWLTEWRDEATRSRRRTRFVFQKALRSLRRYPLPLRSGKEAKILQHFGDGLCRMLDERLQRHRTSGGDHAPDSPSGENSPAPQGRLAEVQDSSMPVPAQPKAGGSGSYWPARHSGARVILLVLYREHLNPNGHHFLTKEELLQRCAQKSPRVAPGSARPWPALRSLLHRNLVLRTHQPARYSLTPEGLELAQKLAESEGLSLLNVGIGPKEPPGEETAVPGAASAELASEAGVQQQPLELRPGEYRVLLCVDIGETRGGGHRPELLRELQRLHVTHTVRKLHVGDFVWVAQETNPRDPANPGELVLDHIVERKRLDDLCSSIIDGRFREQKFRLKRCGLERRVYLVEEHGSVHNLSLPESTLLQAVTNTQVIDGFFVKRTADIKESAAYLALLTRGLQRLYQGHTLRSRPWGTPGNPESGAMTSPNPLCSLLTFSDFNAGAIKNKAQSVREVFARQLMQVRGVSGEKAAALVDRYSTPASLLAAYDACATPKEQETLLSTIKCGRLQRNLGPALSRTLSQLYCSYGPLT

EGFP-RECQ4-WT = target: T3, EGFP-RECQ4-WT (UniProt O94761); experiment: co-IP; GFP-Trap magnetic particles, 500 µg whole cell lysate of Flp-In T-REx U2OS cells expressing EGFP-RECQ4 constructs, 1 h at 4 °C, three washes, western blot; also cells synchronised in G1/S, S, G2/M and M phase
T3 sequence: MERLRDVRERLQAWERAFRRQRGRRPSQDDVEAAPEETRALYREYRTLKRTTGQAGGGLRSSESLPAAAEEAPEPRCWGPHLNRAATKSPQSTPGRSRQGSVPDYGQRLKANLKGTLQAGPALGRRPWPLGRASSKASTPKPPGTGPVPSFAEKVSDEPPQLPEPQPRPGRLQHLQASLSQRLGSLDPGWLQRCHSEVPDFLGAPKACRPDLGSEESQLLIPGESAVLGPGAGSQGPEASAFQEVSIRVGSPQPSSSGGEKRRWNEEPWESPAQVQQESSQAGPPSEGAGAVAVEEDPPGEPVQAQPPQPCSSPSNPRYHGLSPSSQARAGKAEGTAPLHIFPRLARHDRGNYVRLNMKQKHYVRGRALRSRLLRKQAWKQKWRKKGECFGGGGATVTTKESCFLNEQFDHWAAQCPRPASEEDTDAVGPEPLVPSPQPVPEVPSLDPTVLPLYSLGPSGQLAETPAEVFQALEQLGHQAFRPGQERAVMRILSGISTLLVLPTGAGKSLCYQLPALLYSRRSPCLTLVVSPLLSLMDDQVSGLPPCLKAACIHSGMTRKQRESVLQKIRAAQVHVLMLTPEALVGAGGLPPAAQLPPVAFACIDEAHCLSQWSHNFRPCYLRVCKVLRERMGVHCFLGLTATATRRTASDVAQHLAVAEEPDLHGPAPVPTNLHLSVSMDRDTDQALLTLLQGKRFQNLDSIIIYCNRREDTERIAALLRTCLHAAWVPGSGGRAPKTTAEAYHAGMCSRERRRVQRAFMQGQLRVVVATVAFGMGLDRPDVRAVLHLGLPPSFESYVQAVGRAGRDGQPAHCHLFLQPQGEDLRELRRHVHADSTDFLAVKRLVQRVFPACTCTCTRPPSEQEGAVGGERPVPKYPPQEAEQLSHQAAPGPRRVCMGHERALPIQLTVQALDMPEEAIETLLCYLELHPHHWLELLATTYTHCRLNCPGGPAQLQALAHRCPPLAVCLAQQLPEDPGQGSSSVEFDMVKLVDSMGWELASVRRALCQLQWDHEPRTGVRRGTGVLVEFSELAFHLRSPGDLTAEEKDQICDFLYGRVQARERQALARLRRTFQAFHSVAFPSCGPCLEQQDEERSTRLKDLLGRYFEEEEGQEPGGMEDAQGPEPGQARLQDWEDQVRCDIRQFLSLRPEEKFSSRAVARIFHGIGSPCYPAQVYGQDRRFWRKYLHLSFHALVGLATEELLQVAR

| Binder | binding (GST-MUS81 (1-278)) | binding (GST-MUS81) | binding (EGFP-RECQ4-WT) |
| --- | --- | --- | --- |
| RECQ4 (construct of the pull-down with GST-MUS81 and GST-MUS81 fragments) (protein, UniProt O94761 1-1208) MERLRDVRERLQAWERAFRRQRGRRPSQDDVEAAPEETRALYREYRTLKRTTGQAGGGLRSSESLPAAAEEAPEPRCWGPHLNRAATKSPQSTPGRSRQGSVPDYGQRLKANLKGTLQAGPALGRRPWPLGRASSKASTPKPPGTGPVPSFAEKVSDEPPQLPEPQPRPGRLQHLQASLSQRLGSLDPGWLQRCHSEVPDFLGAPKACRPDLGSEESQLLIPGESAVLGPGAGSQGPEASAFQEVSIRVGSPQPSSSGGEKRRWNEEPWESPAQVQQESSQAGPPSEGAGAVAVEEDPPGEPVQAQPPQPCSSPSNPRYHGLSPSSQARAGKAEGTAPLHIFPRLARHDRGNYVRLNMKQKHYVRGRALRSRLLRKQAWKQKWRKKGECFGGGGATVTTKESCFLNEQFDHWAAQCPRPASEEDTDAVGPEPLVPSPQPVPEVPSLDPTVLPLYSLGPSGQLAETPAEVFQALEQLGHQAFRPGQERAVMRILSGISTLLVLPTGAGKSLCYQLPALLYSRRSPCLTLVVSPLLSLMDDQVSGLPPCLKAACIHSGMTRKQRESVLQKIRAAQVHVLMLTPEALVGAGGLPPAAQLPPVAFACIDEAHCLSQWSHNFRPCYLRVCKVLRERMGVHCFLGLTATATRRTASDVAQHLAVAEEPDLHGPAPVPTNLHLSVSMDRDTDQALLTLLQGKRFQNLDSIIIYCNRREDTERIAALLRTCLHAAWVPGSGGRAPKTTAEAYHAGMCSRERRRVQRAFMQGQLRVVVATVAFGMGLDRPDVRAVLHLGLPPSFESYVQAVGRAGRDGQPAHCHLFLQPQGEDLRELRRHVHADSTDFLAVKRLVQRVFPACTCTCTRPPSEQEGAVGGERPVPKYPPQEAEQLSHQAAPGPRRVCMGHERALPIQLTVQALDMPEEAIETLLCYLELHPHHWLELLATTYTHCRLNCPGGPAQLQALAHRCPPLAVCLAQQLPEDPGQGSSSVEFDMVKLVDSMGWELASVRRALCQLQWDHEPRTGVRRGTGVLVEFSELAFHLRSPGDLTAEEKDQICDFLYGRVQARERQALARLRRTFQAFHSVAFPSCGPCLEQQDEERSTRLKDLLGRYFEEEEGQEPGGMEDAQGPEPGQARLQDWEDQVRCDIRQFLSLRPEEKFSSRAVARIFHGIGSPCYPAQVYGQDRRFWRKYLHLSFHALVGLATEELLQVAR | binds | binds |  |
| MUS81 (protein, UniProt Q96NY9 1-551) MAAPVRLGRKRPLPACPNPLFVRWLTEWRDEATRSRRRTRFVFQKALRSLRRYPLPLRSGKEAKILQHFGDGLCRMLDERLQRHRTSGGDHAPDSPSGENSPAPQGRLAEVQDSSMPVPAQPKAGGSGSYWPARHSGARVILLVLYREHLNPNGHHFLTKEELLQRCAQKSPRVAPGSARPWPALRSLLHRNLVLRTHQPARYSLTPEGLELAQKLAESEGLSLLNVGIGPKEPPGEETAVPGAASAELASEAGVQQQPLELRPGEYRVLLCVDIGETRGGGHRPELLRELQRLHVTHTVRKLHVGDFVWVAQETNPRDPANPGELVLDHIVERKRLDDLCSSIIDGRFREQKFRLKRCGLERRVYLVEEHGSVHNLSLPESTLLQAVTNTQVIDGFFVKRTADIKESAAYLALLTRGLQRLYQGHTLRSRPWGTPGNPESGAMTSPNPLCSLLTFSDFNAGAIKNKAQSVREVFARQLMQVRGVSGEKAAALVDRYSTPASLLAAYDACATPKEQETLLSTIKCGRLQRNLGPALSRTLSQLYCSYGPLT |  |  | binds |
